Screening data, single-dose tests

By UniProt entry, the sequences of proteins in these tests, tags left out. Residues count along the entry.
UniProt A4I591, 1-473: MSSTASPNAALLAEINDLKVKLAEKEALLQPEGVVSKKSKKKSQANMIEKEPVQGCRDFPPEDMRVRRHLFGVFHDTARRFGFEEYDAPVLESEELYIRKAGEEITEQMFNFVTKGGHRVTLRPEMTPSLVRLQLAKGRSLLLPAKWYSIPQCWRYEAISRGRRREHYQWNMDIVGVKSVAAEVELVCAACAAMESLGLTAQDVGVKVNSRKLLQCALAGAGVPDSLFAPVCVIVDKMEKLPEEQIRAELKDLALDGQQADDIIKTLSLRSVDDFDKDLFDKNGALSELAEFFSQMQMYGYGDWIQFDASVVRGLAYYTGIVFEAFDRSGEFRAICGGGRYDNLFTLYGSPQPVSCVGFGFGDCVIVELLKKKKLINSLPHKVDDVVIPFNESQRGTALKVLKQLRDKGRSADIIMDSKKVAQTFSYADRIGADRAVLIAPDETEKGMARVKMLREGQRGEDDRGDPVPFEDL
UniProt P9WFT3, whole entry: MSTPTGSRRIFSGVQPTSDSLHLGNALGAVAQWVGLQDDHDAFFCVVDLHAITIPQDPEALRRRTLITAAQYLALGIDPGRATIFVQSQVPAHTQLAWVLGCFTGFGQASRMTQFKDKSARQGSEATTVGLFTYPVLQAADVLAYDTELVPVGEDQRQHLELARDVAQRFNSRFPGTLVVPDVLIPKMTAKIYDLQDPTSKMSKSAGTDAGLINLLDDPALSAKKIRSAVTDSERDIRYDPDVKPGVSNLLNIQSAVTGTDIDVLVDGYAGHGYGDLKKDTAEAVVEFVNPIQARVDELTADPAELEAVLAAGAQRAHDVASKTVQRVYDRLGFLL
UniProt P9WNZ1, whole entry: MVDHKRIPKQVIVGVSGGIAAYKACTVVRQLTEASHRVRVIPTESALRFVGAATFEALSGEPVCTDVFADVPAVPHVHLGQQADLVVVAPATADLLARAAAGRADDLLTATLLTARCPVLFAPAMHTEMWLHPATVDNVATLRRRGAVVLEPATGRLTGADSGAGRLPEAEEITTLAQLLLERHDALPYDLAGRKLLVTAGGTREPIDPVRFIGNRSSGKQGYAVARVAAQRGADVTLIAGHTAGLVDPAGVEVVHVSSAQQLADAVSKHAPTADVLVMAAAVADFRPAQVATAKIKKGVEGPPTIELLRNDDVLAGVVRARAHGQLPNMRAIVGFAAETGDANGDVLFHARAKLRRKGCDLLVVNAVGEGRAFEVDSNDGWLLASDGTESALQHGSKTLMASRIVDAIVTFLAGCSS

Values are the deposited “Percent Effect”, in %. How 0% and 100% were set is not recorded. Most values in the screen are low, and negative values occur. Compounds were drawn at random from those tested, without regard to their results. A dash means the value is not listed here; it may have been measured.

LiHisRS: 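Enzyme assay of histidyl-tRNA synthetase; the read-out is not stated. Target: Histidine-tRNA ligase, Leishmania infantum (UniProt A4I591). Compounds at 30 µM. Higher reads as stronger inhibition (inferred: compounds with an IC50 in retests scored well above the rest). The assay is labelled LdHisRS but filed under L. infantum. Of about 69,000 compounds tested this way, about 410 (0.6%) reached 50% or more in at least one test.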
MtTrpRS: 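Tryptophan-tRNA ligase, Mycobacterium tuberculosis (UniProt P9WFT3). Enzyme assay of tryptophanyl-tRNA synthetase; the read-out is not stated. Compounds at 10 µM. Direction is not recorded; retested compounds ran higher, which suggests that high means inhibition. Of about 65,000 compounds tested this way, about 64 (0.098%) reached 50% or more in at least one test.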
CoaBC: 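Enzyme assay of CoaBC with a phosphate dye (Biomol Green) read at 650 nm. Target: Coenzyme A biosynthesis protein CoaBC, Mycobacterium tuberculosis (UniProt P9WNZ1). Compounds at 30 µM. Direction is inferred from only a few compounds that gave an IC50; most scored high, so higher reads as stronger inhibition. Most strong results did not repeat in a second test. Of about 67,000 compounds tested this way, about 40 (0.06%) reached 50% or more in at least one test.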

SMILES,LiHisRS,MtTrpRS,CoaBC
O=C(NC1CCCc2nc(N3CCCCC3)ncc21)C1CCCC1 (stereo unspecified),3.125%,-,2.696%
Cc1ccc(CNC(c2cccc(F)c2)c2nccn2C)o1 (stereo unspecified),15.05%,2.436%,-2.457%
O=C(NC1CCCCNC1=O)c1cc2ccccc2[nH]c1=O (stereo unspecified),0%,1.192%,7.195%
CN(Cc1ccccc1Cl)C(C(=O)O)c1ccc(F)c(CO)c1 (stereo unspecified),17.95%,-2.773%,11.2%
CC(C(=O)NCc1ccc(N2CCNC(=O)C2)cc1)n1cncn1 (stereo unspecified),52.05%,1.199%,1.687%
COCC(O)CNC(=O)c1coc(COc2ccc3sc(C)nc3c2)n1 (stereo unspecified),15.38%,-1.497%,-4.904%
CCNc1ncc(C(=O)NC(CC)c2ccnn2C)cn1 (stereo unspecified),14.63%,-0.7424%,6.997%
O=C(COCC(=O)N(c1ccccc1)c1ccccc1)N1CCCCC1,14.94%,3.834%,17.23%
CN1CCN(C(=O)N2C[C@H]3CC[C@@H]2CN(Cc2ccccc2)C3)CC1,2.151%,-1.308%,-16.26%
CCc1ccc(C(=O)Nc2ccc(CC3CC(=O)NC3=O)cc2)s1 (stereo unspecified),17.74%,-3.524%,-2.689%
CCS(=O)(=O)N1CCc2ccc(NC(=O)NCc3ccccc3)cc21,-13.48%,2.494%,1.324%
O=c1cc(N2CCOCC2)cnn1CCc1ccc(F)cc1,4.301%,1.41%,3.194%
O=C1CCC2(CCCN(C(=O)c3cccnc3)CC2)N1 (stereo unspecified),21.36%,-3.638%,3.562%
COc1ccc([C@@H]2CN(C(=O)CS(C)(=O)=O)C[C@H]2NC(C)=O)cc1,10.53%,-1.401%,12.42%
CCn1cnnc1CNC(=O)N1CCN(Cc2ccccc2)CC1,18.67%,0.3909%,6.667%
Cc1nnc(C(C)N2CCc3[nH]c4ccccc4c3C2)o1 (stereo unspecified),34.69%,4.112%,-4.463%
Cc1noc(C)c1C(=O)N1C[C@@H]2COC[C@]2(COc2ccccn2)C1,9.091%,1.744%,-0.4202%
N[C@@H]1c2ccccc2C2(CCN(c3ncccc3C(F)(F)F)CC2)[C@H]1O,32.53%,2.175%,1.139%
CC(=O)NC1CCCN(C(=O)NCc2ccc(-c3ccn[nH]3)cc2)C1 (stereo unspecified),22.73%,-2.437%,3.506%
Cc1cc(C)c2c(N3CCC(O)(Cn4ccnc4)CC3)ncnc2n1,-1.493%,-0.8189%,-4.418%
CCN(Cc1ccoc1)C(=O)NC1CCN(CC2CC2)C1 (stereo unspecified),22.86%,-1.135%,-
Cc1ccc(C(C)NCc2cn(CCC(N)=O)c3ccccc23)cc1C (stereo unspecified),20%,3.905%,4.634%
O=C(NCC1CC1)[C@H]1CC[C@@H]2[C@@H](CCN2Cc2nccs2)O1,12.5%,0.9982%,-1.235%
CCc1nnc2n1CCN(C(=O)c1cnc3ccccc3n1)C2,12.5%,-3.412%,9.705%
Cc1ccc(-c2nc(CN(Cc3cccs3)C3CCS(=O)(=O)C3)cs2)o1 (stereo unspecified),10.53%,4.722%,-14.92%
COc1cc(F)cc(NC(=O)NCc2cccc(N(C)C)n2)c1,-27.4%,5.462%,-1.86%
CC(C)(CNC(=O)C(C)(C)c1ccccc1F)C(N)=O,10.62%,0.8602%,3.559%
Cc1n[nH]c(C)c1CCN(C)C(=O)c1ccc(CN2CCCCC2)cc1,10.85%,-0.2463%,5.528%
O=C(NCc1ccco1)[C@H]1CC[C@@H]2[C@@H](CCN2C2CCC2)O1,23.08%,-3.32%,2.256%
CN(C(=O)NCc1ccncc1)C1CCCN(c2ccccc2)C1=O (stereo unspecified),3.67%,-3.952%,-5.627%
COC(=O)CCC(=O)NCc1cccnc1N1CCc2ccccc2C1,4.286%,-1.625%,-3.484%
CCNc1nc(C(=O)N(C)Cc2nc(CC)no2)cs1,9.877%,-0.5141%,6.018%
COc1ccccc1C(O)Cn1cc(C(=O)NCC2CC2)nn1 (stereo unspecified),17.39%,3.267%,7.822%
CN(C)CCN1CCC(CNCc2c[nH]nc2C(C)(C)C)CC1,8.772%,0.6152%,2.609%
CCCNC(=O)c1c(-n2cnnn2)sc2c1CCC2,11.43%,-2.86%,-1.754%
CCc1noc(C)c1C(=O)NCc1c(C)nn(CCOC)c1C,12.7%,0.6606%,1.491%
CCN(CC)Cc1cn2c(n1)CN(C1CCOC1)CC2 (stereo unspecified),11.11%,3.358%,-0.7407%
Cc1nc(NCCSc2cnn[nH]2)c2c(C)noc2n1,16.24%,13.72%,9.664%
CCn1c(C)nnc1SCCNC(=O)Cn1cnc2ccccc2c1=O,1.333%,-5.393%,6.198%
Cc1nc(Nc2ccc(Cl)cn2)sc1C(=O)NC(C)C,21.67%,10.78%,3.64%
CCc1nonc1NC(=O)C(C)Oc1ccccc1F (stereo unspecified),8.889%,-0.3704%,5.392%
Cc1cnn(CCC(=O)N2CCN(C(=O)C3CC3)[C@@H]3CS(=O)(=O)C[C@@H]32)c1,13.11%,3.704%,6.71%
CS(=O)(=O)N1C[C@@H]2CC[C@H](C1)N(Cc1ccc3nsnc3c1)C2,14.52%,1.077%,7.636%

For reference, 5 entries once more:

{"smiles": "CN(Cc1ccccc1Cl)C(C(=O)O)c1ccc(F)c(CO)c1", "stereo": "stereo unspecified", "LiHisRS": 17.95, "MtTrpRS": -2.773, "CoaBC": 11.2}
{"smiles": "CC(=O)NC1CCCN(C(=O)NCc2ccc(-c3ccn[nH]3)cc2)C1", "stereo": "stereo unspecified", "LiHisRS": 22.73, "MtTrpRS": -2.437, "CoaBC": 3.506}
{"smiles": "Cc1nc(NCCSc2cnn[nH]2)c2c(C)noc2n1", "LiHisRS": 16.24, "MtTrpRS": 13.72, "CoaBC": 9.664}
{"smiles": "CCNc1ncc(C(=O)NC(CC)c2ccnn2C)cn1", "stereo": "stereo unspecified", "LiHisRS": 14.63, "MtTrpRS": -0.7424, "CoaBC": 6.997}
{"smiles": "CN1CCN(C(=O)N2C[C@H]3CC[C@@H]2CN(Cc2ccccc2)C3)CC1", "LiHisRS": 2.151, "MtTrpRS": -1.308, "CoaBC": -16.26}

Data taken from ChEMBL document CHEMBL3988442, “University of Dundee, Small-Polar-MMV Screening Library” (2021).